These results are taken from article PMC8636618.

Sequences of proteins named here, by UniProt entry; tags and fusion partners are left off. Residues count along the entry.
UniProt P02751, residues 32-2477: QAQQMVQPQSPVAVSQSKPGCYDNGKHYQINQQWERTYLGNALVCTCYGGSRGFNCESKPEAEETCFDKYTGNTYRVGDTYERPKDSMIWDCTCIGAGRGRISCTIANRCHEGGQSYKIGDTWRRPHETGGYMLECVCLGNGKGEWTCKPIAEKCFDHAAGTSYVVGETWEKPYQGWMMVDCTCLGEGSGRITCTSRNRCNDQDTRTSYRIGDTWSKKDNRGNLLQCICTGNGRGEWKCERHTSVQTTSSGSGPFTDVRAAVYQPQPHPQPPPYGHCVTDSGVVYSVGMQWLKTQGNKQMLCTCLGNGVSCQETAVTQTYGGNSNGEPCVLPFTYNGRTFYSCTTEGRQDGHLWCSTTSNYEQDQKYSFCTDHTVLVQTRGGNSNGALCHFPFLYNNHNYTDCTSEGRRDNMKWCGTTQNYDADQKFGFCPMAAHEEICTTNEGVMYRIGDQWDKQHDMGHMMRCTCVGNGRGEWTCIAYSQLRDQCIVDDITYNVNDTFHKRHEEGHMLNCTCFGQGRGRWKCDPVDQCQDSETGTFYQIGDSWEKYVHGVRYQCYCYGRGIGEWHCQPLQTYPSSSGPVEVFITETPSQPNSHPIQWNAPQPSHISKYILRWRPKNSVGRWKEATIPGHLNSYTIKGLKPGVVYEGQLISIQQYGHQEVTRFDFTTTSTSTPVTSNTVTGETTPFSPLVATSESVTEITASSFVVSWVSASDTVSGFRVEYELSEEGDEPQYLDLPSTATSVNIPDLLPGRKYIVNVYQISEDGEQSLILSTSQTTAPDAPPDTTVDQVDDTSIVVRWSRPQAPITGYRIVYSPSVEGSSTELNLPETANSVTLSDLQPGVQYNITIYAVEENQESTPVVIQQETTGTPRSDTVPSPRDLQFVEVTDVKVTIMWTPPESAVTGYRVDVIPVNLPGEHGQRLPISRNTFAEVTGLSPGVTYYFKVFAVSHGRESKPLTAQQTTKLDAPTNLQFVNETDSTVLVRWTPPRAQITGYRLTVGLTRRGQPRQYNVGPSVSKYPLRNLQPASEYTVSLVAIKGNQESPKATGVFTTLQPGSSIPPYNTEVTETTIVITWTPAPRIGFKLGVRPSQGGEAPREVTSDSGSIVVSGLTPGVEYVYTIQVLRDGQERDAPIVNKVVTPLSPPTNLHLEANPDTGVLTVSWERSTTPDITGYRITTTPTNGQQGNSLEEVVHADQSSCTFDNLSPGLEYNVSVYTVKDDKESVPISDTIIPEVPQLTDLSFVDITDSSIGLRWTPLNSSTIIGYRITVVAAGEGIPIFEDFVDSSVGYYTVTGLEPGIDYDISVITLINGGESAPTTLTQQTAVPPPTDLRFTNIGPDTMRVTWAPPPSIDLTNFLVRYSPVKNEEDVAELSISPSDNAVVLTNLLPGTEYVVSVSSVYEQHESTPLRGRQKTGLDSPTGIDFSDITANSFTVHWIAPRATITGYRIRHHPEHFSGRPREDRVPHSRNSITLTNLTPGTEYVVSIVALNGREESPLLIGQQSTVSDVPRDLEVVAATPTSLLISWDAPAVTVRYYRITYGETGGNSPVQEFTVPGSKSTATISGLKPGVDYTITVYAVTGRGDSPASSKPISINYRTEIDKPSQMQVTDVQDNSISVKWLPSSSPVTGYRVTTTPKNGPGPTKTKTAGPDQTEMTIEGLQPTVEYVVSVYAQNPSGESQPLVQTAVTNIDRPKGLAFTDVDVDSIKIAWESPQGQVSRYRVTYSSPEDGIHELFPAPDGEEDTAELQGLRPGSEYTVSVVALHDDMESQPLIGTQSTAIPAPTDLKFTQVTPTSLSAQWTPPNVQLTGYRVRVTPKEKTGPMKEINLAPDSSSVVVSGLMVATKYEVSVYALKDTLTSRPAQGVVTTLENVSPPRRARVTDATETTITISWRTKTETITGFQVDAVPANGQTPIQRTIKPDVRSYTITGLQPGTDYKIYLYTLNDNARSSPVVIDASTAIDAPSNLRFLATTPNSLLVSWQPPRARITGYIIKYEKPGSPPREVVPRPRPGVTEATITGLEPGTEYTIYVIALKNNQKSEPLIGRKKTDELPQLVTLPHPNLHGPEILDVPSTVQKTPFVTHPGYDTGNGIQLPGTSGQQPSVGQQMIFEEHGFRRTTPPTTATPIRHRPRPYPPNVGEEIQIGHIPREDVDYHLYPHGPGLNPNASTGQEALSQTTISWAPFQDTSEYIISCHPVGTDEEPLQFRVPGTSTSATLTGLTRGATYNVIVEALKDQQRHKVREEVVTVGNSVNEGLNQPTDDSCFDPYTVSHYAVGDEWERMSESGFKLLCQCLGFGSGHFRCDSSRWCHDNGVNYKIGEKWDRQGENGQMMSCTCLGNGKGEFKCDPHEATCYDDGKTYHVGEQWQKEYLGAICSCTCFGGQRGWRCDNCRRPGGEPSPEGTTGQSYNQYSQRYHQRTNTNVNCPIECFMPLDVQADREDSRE
UniProt Q9NZQ7, residues 19-290: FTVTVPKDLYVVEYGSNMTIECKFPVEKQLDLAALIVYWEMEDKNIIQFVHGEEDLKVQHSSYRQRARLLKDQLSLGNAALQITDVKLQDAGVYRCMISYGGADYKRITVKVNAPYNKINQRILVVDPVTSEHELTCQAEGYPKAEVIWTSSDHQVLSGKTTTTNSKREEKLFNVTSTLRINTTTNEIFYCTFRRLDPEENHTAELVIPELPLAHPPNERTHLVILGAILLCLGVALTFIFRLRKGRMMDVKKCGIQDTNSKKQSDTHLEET

In this test the target is fibronectin (human (endogenous in HOP-62)) (UniProt P02751). Kind of test: proximity ligation; in situ Duolink PLA on fixed HOP-62 and NCI-H23 cells; primary antibodies anti-PD-L1 (rabbit, clone 28-8) and anti-fibronectin (mouse, clone P1H11), 2 h at room temperature.

These are yes or no findings as the source states them, for the method shown. In cells and extracts the contact can be indirect. Some results given as binding are weak or reduced against the parent protein; the word gives no strength.

Regarding PD-L1 (from UniProt Q9NZQ7 19-290), the binding result is on record as “binds”.
